Test results as given in PubChem BioAssay AID1347076 (National Center for Advancing Translational Sciences (NCATS), 2019).
About 13,000 (3.2%) of roughly 400,000 compounds were called active. The shares of active, inactive and inconclusive entries below differ from those in the screen. The call rests on the fitted dose curve; in most records, active means well fitted cell-killing curve with a large enough effect; inconclusive means small, poorly fitted or top-dose-only effect, or effect the other way; inactive means flat fitted curve, though single readings scatter. Potencies beside an inconclusive call are fits to weak or partial responses and may not hold up.
On the % scale 0 is the no-effect control and ±100 the full control effect; potency means the concentration at half of the fitted maximal effect.

Test: qHTS assay for MDR1-selective chemotherapeutics: Primary screen using the drug-selected MDR subline cells KB-V1; further: nearly all actives have a fitted effect of over 60% in size
Conditions: KB-V1 MDR cells viability, CellTiter-Glo, 72 h; activity change, negative = cytotoxicity: at 46.1 µM (top of the series)
Outline: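 Potencies derive from concentration-effect curves fitted to normalized luminescence (CellTiter-Glo) of KB-V1 cells treated for 72 h at 37 degrees C in phenol-red-free DMEM containing 10% FBS.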
In the case of CC(C)C(=O)Nc1ncc2c(n1)CC(c1cccs1)CC2=O (stereo unspecified), the Potency is reported as inconclusive: 20.6 µM [rising, single point]. For CCOc1cc(C)c(S(=O)(=O)Nc2ccc(F)cc2)cc1C, the Potency was “inactive”. With COc1cccc(C(=O)OCC(=O)NCCCc2ccccc2)c1 the Potency was “inactive”. In the case of CSCCC(c1nc2ccccc2[nH]1)n1c(-c2ccc(C)cc2)nc2ccccc21 (stereo unspecified), the Potency is reported as inconclusive: 5.17 µM [cytotoxic, partial curve]. With Cc1ccnc(NC(=O)CC(c2ccccc2)c2ccccc2)n1 the Potency was “inactive”. In the case of O=C(CCCCCn1c(SCc2ccncc2)nc2ccccc2c1=O)NCc1ccco1, the Potency is reported as inconclusive: 16.4 µM [cytotoxic, single point]. In the case of Cc1ccc(NC(=S)Nc2ccc3[nH]c(=O)[nH]c3c2)cc1C, the Potency is reported as “inactive”. In the case of CC1=C(C(=O)OCc2ccccc2)C(c2cccc([N+](=O)[O-])c2)NC(=O)N1C (stereo unspecified), the Potency is reported as inconclusive: 29.1 µM [cytotoxic, single point]. For CCCS(=O)(=O)c1ncc(Cl)c(C(=O)Nc2scc(-c3ccccc3)c2C(=O)OCC)n1, the Potency was inconclusive: 29.1 µM [cytotoxic, single point]. With Cc1cc(-c2ccccc2)nc(Oc2cccc(C(F)(F)F)c2)c1S(C)(=O)=O the Potency was inconclusive: 14.6 µM [cytotoxic, single point]. In the case of CN(CC(=O)Nc1cccc(F)c1)C(=O)c1ccc(N2C(=O)c3ccccc3C2=O)cc1, the Potency is reported as “inactive”. With CN(C)S(=O)(=O)c1ccc2nnn(OCC(=O)NC34CC5CC(CC(C5)C3)C4)c2c1 the Potency was active: 3.66 µM. With CCn1c(=O)c2c(nc(SCc3ccccn3)n2C)n(C)c1=O the Potency was active: 14.6 µM. For O=C(CSc1nc(-c2ccccc2)cs1)NC(=O)NCc1ccco1, the Potency was inconclusive: 9.2 µM [cytotoxic, partial curve]. In the case of O=C(NCc1ccccc1)C1C(c2ccccc2)=Nc2ccccc2N1C(=O)c1cccnc1 (stereo unspecified), the Potency is reported as inconclusive: 5.17 µM [cytotoxic, full curve]. For O=S(=O)(CCN1CCOCC1)c1ccccc1, the Potency was inconclusive: 18.4 µM [rising, single point]. With Cc1nc(SCC(=O)NCc2ccco2)c2c3c(sc2n1)CCCC3 the Potency was inconclusive: 16.4 µM [cytotoxic, partial curve, poor fit]. In the case of O=C(NCc1ccccc1Cl)c1[nH]c(C(F)(F)F)nc1-c1ccccc1, the Potency is reported as “inactive”. With CC(C)OC(=O)CSc1nnc2c(n1)[nH]c1ccc(F)cc12 the Potency was “inactive”. For Cc1ccc(S(=O)(=O)N(C)C)cc1NC(=O)CN1C(=O)NC2(CCCc3ccccc32)C1=O (stereo unspecified), the Potency was inconclusive: 2.91 µM [cytotoxic, partial curve, poor fit]. In the case of CN(C)c1ccc2c(c1)C(=NO)c1ccccc1-2, the Potency is reported as “inactive”. With Cc1ccc2nc(NC(=O)c3ccc(NS(=O)(=O)c4cccs4)cc3)sc2c1 the Potency was inconclusive: 23.1 µM [cytotoxic, single point]. With CC(C)(C)NC(=O)NC(=O)Cn1ccsc1=N the Potency was inconclusive: 6.51 µM [rising, partial curve]. With COc1ccc(C)cc1-n1nnnc1SCn1nnc2ccccc2c1=O the Potency was inconclusive: 9.2 µM [cytotoxic, partial curve]. With CCc1ccc(/C=C/C(=O)c2cc(Br)ccc(=O)c2O)cc1 the Potency was active: 10.3 µM. For COc1ccc(C(c2nnnn2C(C)(C)C)N2CCN(c3nc4ccccc4s3)CC2)cc1 (stereo unspecified), the Potency was inconclusive: 23.1 µM [cytotoxic, partial curve, poor fit]. In the case of CC(C)COC(=O)c1ccccc1N1C(=O)C2C3CCC(C3)C2C1=O (stereo unspecified), the Potency is reported as inconclusive: 18.4 µM [cytotoxic, single point]. In the case of Fc1ccc(F)c(NC(=S)NCCc2ccccc2)c1, the Potency is reported as inconclusive: 14.6 µM [cytotoxic, partial curve]. With O=C(CCc1ccccc1)Nc1ccc2c(c1)C(=O)OC2 the Potency was “inactive”. For NS(=O)(=O)c1ccc(CCNC(=O)CNC(=O)c2ccc(Oc3ccccc3)cc2)cc1, the Potency was inconclusive: 18.4 µM [rising, partial curve, poor fit]. With O=C(NCCC1=CCCCC1)c1cc(COc2c(F)cccc2F)on1 the Potency was “inactive”. For CCCCCCSc1ccc([C@@H]2[C@H]3C(=O)N(CC)C(=O)[C@H]3[C@]3(C(=O)OC)CCCCN23)cc1, the Potency was inconclusive: 23.1 µM [cytotoxic, single point]. In the case of CC(C)(C)C1=NN(c2ccc([N+](=O)[O-])cc2)C(c2ccccc2)C1 (stereo unspecified), the Potency is reported as “inactive”. In the case of CCCC1=[N+](CC(=O)c2ccc(Br)cc2)CCn2cccc21, the Potency is reported as inconclusive: 29.1 µM [cytotoxic, single point]. For COC(CNC(=O)c1ccc(N2CCC3(CC2)OCCO3)c([N+](=O)[O-])c1)OC, the Potency was inconclusive: 9.2 µM [cytotoxic, partial curve]. With Cc1ccc(-n2[nH]c3c4c(ccc3c2=O)C(=O)c2ccccc2C4=O)cc1 the Potency was “inactive”. For NC(=O)COc1cc2oc(=O)c3c(c2cc1Cl)CCCC3, the Potency was active: 8.2 µM. With Cc1ccc(C(=O)NCCNc2ccc([N+](=O)[O-])cc2C(F)(F)F)cc1 the Potency was inconclusive: 18.4 µM [cytotoxic, partial curve]. In the case of COc1ccc(N(CC(=O)NCCc2ccccc2)S(=O)(=O)c2ccccc2)c(OC)c1, the Potency is reported as “inactive”. In the case of Nc1n[nH]c(N)c1N=Nc1ccc(Cl)cc1Cl, the Potency is reported as “inactive”. In the case of O=C(Nc1ccccc1Cl)/C(Cl)=C(\Cl)S(=O)c1ccccc1 (stereo unspecified), the Potency is reported as inconclusive: 2.59 µM [cytotoxic, full curve, poor fit]. With O=C(C[N+]1(CCO)CCOCC1)c1ccc(F)c2ccccc12 the activity change, negative = cytotoxicity was inconclusive: -25.4%. In the case of Cc1cccc(C(=O)N/N=C/C(C)Cc2ccc3c(c2)OCO3)c1 (stereo unspecified), the Potency is reported as inconclusive: 29.1 µM [rising, single point]. With Cc1cc(C)cc(N(C(=O)CCC(=O)Nc2cc(C)on2)C(C(=O)NC2CCCC2)c2ccco2)c1 (stereo unspecified) the Potency was “inactive”. With O=C(Nc1cccnc1)c1ccc(COc2ccccc2Cl)o1 the Potency was inconclusive: 20.6 µM [cytotoxic, single point]. For COCCNC(=O)C1CCCN(C(=O)c2nc(C)oc2C)CC1 (stereo unspecified), the Potency was “inactive”.
